Results as given in article doi:10.1101/2020.10.25.354415 (bioRxiv, 2020).
These are yes or no findings as the source states them, for the method shown. Some binding calls cover weakened binding; strength is not graded here.

Chains of the proteins cited; added tags and fusions are not shown. Residues count along the entry.
αE-catenin M1-M3 (aa273-651) (P26231, residues 273-651): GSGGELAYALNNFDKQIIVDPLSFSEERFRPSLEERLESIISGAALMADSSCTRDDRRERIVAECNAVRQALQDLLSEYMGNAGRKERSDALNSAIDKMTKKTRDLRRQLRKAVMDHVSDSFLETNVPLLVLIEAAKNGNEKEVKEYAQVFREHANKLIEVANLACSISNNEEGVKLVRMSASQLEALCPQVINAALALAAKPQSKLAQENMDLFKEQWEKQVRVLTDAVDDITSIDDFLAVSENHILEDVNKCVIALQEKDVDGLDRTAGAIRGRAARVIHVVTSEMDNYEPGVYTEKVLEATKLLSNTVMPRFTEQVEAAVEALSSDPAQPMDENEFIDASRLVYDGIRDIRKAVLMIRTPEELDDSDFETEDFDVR
αE-catenin M1-M2 (aa273-510) (P26231, residues 273-510): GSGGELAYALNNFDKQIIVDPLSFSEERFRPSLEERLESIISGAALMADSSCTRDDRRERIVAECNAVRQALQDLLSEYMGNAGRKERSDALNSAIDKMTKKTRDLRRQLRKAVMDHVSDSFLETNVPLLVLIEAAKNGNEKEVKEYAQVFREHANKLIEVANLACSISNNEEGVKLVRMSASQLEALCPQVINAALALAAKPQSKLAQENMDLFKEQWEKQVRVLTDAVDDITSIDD
UniProt P15116, residues 746-906: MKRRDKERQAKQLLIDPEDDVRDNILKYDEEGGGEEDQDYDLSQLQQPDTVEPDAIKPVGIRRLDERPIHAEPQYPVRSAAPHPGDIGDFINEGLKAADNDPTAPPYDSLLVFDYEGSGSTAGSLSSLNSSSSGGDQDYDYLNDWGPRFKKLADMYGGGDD

T1: β-catenin (M. musculus, UniProt Q02248 1-781)
T1 sequence (looked up): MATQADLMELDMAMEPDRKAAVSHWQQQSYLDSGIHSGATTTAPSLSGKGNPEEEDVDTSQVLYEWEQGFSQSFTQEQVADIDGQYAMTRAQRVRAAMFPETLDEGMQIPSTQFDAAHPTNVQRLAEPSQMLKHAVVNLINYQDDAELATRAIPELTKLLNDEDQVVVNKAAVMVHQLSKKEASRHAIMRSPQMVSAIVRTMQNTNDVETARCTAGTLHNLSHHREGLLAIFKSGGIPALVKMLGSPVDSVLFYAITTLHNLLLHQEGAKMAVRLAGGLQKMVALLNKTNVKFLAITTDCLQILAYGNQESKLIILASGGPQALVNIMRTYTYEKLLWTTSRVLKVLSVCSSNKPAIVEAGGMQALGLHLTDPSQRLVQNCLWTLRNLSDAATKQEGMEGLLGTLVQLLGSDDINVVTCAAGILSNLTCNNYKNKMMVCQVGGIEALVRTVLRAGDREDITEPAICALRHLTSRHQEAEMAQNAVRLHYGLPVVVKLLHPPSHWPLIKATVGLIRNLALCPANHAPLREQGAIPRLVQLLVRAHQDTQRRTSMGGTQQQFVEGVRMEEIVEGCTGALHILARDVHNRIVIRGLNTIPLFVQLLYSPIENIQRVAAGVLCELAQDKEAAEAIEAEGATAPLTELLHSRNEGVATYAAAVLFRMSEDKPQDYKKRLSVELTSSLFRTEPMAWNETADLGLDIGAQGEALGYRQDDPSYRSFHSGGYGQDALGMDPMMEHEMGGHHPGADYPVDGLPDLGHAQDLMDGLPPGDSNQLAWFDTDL

T2: αT-catenin M1-M3 (aa260-626) (M. musculus, UniProt Q65CL1 260-626)
T2 sequence (looked up): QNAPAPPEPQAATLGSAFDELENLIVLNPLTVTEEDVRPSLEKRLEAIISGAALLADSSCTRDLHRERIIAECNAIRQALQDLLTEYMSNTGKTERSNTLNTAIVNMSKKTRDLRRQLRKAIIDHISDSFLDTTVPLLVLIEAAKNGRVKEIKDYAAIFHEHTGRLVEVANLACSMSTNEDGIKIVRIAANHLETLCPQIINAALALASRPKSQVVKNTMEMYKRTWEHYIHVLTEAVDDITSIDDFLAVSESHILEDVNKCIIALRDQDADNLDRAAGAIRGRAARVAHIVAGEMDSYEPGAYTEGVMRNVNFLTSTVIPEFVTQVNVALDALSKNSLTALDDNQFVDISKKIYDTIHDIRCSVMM


Key:
β-catenin = biological target: T1, β-catenin; assay: purified complex used as ITC sample
[1] = biological target: αE-catenin M1-M3 (aa273-651) (M. musculus) (UniProt P26231); assay: ITC
[2] = biological target: αE-catenin M1-M2 (aa273-510) (M. musculus) (UniProt P26231); assay: ITC
[3] = biological target: T2, αT-catenin M1-M3 (aa260-626); assay: ITC

binding (β-catenin) | binding [1] | binding [2] | binding [3] | Molecule
binds |  |  |  | N-cadherin cytoplasmic tail (from UniProt P15116 746-906) (domain or fragment)
 | binds weakly | binds | binds | vinculin D1 (aa1-259) (domain or fragment, UniProt P12003 1-259, looked up) MPVFHTRTIESILEPVAQQISHLVIMHEEGEVDGKAIPDLTAPVSAVQAAVSNLVRVGKETVQTTEDQILKRDMPPAFIKVENACTKLVRAAQMLQADPYSVPARDYLIDGSRGILSGTSDLLLTFDEAEVRKIIRVCKGILEYLTVAEVVETMEDLVTYTKNLGPGMTKMAKMIDERQQELTHQEHRVMLVNSMNTVKELLPVLISAMKIFVTTKNTKSQGIEEALKNRNFTVEKMSAEINEIIRVLQLTSWDEDAWA
